In PMC4746922:
These are yes or no findings as the source states them, for the method shown. In cells and extracts the contact can be indirect. Some results given as binding are weak or reduced against the parent protein; the word gives no strength. For some assays here: Tags and fused reporters may be left off the sequences shown.

Columns and labels:
[1] = biological target: T1, flag-tagged Wt Rad9 (human) (UniProt Q99638); test: co-IP; lysates of HEK293 c-18 cells stably overexpressing flag-tagged Wt or S328D Rad9, with or without HU; immunoprecipitated with flag antibody; blotted for Hus1 and WRN
T1 sequence: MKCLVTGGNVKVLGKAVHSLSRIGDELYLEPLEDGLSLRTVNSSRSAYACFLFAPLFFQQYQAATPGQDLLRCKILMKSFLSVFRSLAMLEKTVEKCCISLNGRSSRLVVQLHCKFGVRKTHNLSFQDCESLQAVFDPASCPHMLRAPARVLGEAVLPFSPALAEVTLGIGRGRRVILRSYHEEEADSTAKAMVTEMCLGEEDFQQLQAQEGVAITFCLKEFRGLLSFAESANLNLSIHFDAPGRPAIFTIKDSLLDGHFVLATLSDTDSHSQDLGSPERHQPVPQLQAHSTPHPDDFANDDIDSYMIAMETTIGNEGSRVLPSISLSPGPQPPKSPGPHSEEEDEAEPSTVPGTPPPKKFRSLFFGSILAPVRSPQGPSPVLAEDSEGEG

[2] = biological target: T2, Rad9 (human (endogenous in HEK293)) (UniProt Q99638); test: co-IP; lysates (1.5 mg; 1 % Triton X-100, 0.5 % Na-deoxycholate, 150 mM NaCl, Tris/HCl pH 8.0; sonicated, benzonase) of HEK293 cells stably expressing Wt or Mut (S457A) TLK1B, untreated or treated with HU; immunoprecipitated with anti-Rad9 antibody overnight at 4 °C, protein A/G Sepharose; blotted for Hus1 and WRN
T2 sequence: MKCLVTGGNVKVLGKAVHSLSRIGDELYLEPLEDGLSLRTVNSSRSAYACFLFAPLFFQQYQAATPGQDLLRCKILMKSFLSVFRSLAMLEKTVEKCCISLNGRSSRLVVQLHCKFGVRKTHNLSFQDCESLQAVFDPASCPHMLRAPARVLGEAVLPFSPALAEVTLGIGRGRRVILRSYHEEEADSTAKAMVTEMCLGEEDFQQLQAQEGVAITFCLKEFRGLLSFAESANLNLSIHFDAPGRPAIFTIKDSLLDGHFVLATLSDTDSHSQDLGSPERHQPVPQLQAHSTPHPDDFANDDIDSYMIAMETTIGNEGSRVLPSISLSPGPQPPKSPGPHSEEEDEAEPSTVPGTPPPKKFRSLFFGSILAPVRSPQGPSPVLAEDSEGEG

binding [1]: binds
binding [2]: binds
B1: Hus1 (protein, UniProt O60921 1-280)
chain: MKFRAKIVDGACLNHFTRISNMIAKLAKTCTLRISPDKLNFILCDKLANGGVSMWCELEQENFFNEFQMEGVSAENNEIYLELTSENLSRALKTAQNARALKIKLTNKHFPCLTVSVELLSMSSSSRIVTHDIPIKVIPRKLWKDLQEPVVPDPDVSIYLPVLKTMKSVVEKMKNISNHLVIEANLDGELNLKIETELVCVTTHFKDLGNPPLASESTHEDRNVEHMAEVHIDIRKLLQFLAGQQVNPTKALCNIVNNKMVHFDLLHEDVSLQYFIPALS
